Measurements reported in article PMC12040169 (PLOS Biology, 2025).
Some of the results follow.

Each compound was assayed on T1, CTL2-GFP (C. trachomatis L2/434/Bu, GFP-expressing). Conditions: bulk GFP, single well; 28.5 h, 10 µM; inhibitor.
T1 construct: L2/434/Bu, GFP-expressing
Parameters: species or system HeLa; Intracellular C. trachomatis growth in HeLa cells, bulk GFP fluorescence relative to DMSO

SMILES | % of control remaining [%]
CC(Oc1ccc(-c2ccccc2)cc1)C(=O)Nc1ccc2c(c1)OCCO2 (centres unmarked) [CBK268002] | 131.458
Cc1ccc(Cn2c(OCCN(C)C)nc3c2c(=O)n(C)c(=O)n3C)cc1 [CBK134241] | 102.095
CC(C)CNC(=O)c1cc(C2CN(Cc3c[nH]nc3C(C)(C)C)CCO2)nc2ccccc12 (centres unmarked) [CBK285925] | 79.1602
FC(F)(F)c1cccc(SCCc2ccccn2)n1 [CBK103719] | 115.797
CCOc1ccc(S(=O)(=O)Nc2cnccn2)cc1 [CBK270313] | 97.4085
O=C1NCCN1CCOc1nccnc1-c1ccc(F)cc1 [CBK106898] | 123.616
O=C(O)CCCN1C(=O)/C(=C/c2ccc(O)c(O)c2)SC1=S [CBK262852] | 123.67
COc1ccc(CNc2ccc(N3CCOCC3)c(C(=O)O)c2)cc1OC [CBK269915] | 110.376
COc1ccccc1-c1cn2ccnc2c(NCCc2ccccn2)n1 [CBK037980] | 168.489
CCN(CC(=O)O)S(=O)(=O)c1cc(C)ccc1OC [CBK268694] | 125.231
Cc1cc(-c2cn(C)nc2C2CCCN2C(=O)CC(C)(C)C)on1 (centres unmarked) [CBK283453] | 126.106
C=CCN1C(=O)C2(CC(=O)N(CCOc3ccccc3)C2=O)c2ccccc21 (centres unmarked) [CBK075159] | 124.386
CCc1nnc(NS(=O)(=O)c2ccc(N/C=C\C(=O)c3ccc4ccccc4c3)cc2)s1 [CBK263385] | 19.1838
CN1C(=O)COc2ccccc2CCCC[C@@H]2[C@H]1CCCN2CCO [CBK292112] | 139.275
COc1ccc(N)cc1OCc1cn2ccccc2n1 [CBK295609] | 154.088
CCOC(=O)CNS(=O)(=O)c1cccc(Cl)c1C [CBK004702] | 184.156
CCc1noc(CN2CCN(c3ccc(C(=O)OC)cc3)CC2C)n1 (centres unmarked) [CBK306154] | 133.968
O=S(=O)(c1ccc(F)cc1F)N1CCN(Cc2ccc3c(c2)OCO3)CC1 [CBK074744] | 108.512
O=C(Nc1sc2c(c1C(=O)NCc1cccnc1)CCC2)c1ccco1 [CBK269599] | 147.913
CC1CCN(S(=O)(=O)c2ccc(C(=O)N3CCC(C(=O)O)CC3)cc2)CC1 [CBK297097] | 107.14
O=C(O)c1ccc(NC2=NS(=O)(=O)c3ccccc32)cc1 [CBK287084] | 133.596
OC1CCN(Cc2c([C@H]3CCCO3)[nH]c3ncccc23)CC1 [CBK286301] | 85.8777
CCC(Cc1ccccc1C)c1cc(O)c(C(c2ccccc2)C2CC2)c(=O)o1 (centres unmarked) [CBK016783] | 88.193
CN(C)S(=O)(=O)N(CC(=O)O)c1ccccc1 [CBK267660] | 99.3796
CNc1nc(NCCCn2c(C)cccc2=O)cc(C2CCOC2)n1 (centres unmarked) [CBK306875] | 87.3991
COc1ccccc1CN(C)CCc1ccccn1 [CBK261741G] | 100
COc1ccc(-n2cc(-c3ccncc3)nn2)cc1OC [CBK113106] | 143.605

SMILES | % of control remaining [%]
Cc1ccc(-c2noc(CSc3nnc(CCc4ccccc4)n3-c3ccccc3)n2)cc1 [CBK268493] | 104.517
CC(NC(=O)C1CCN(CCCN(C)S(C)(=O)=O)CC1)c1cccc2ccccc12 (centres unmarked) [CBK148651] | 82.1096
O=c1cc(NCc2ccncc2)c2ccccc2o1 [CBK017259] | 90.3367
CCOc1ccc(C2=NN(C(=O)CCC(=O)O)C(c3ccc4nccnc4c3)C2)cc1 (centres unmarked) [CBK296703] | 137.855
O=C(Nc1ccc(F)cc1)C1CC(=O)n2c(nc3ccccc32)N1 (centres unmarked) [CBK287282] | 146.458
CN(C)CC(=O)Nc1ccc2n(c1=O)C[C@H]1C[C@@H]2CN(Cc2ccccn2)C1 [CBK289206] | 101.737
Cc1cccc(-n2nnnc2SC(C)C(=O)O)c1 (centres unmarked) [CBK287003] | 118.028
Cc1ccc(CNC(=O)c2ccc3c(c2)NC(=O)C(N2CCCC2)S3)cc1 (centres unmarked) [CBK071788] | 64.6532
Cc1nccn1CCCn1cncc1-c1ccc2c(c1)CC(C)(C)O2 [CBK281809] | 112.011
CCOc1ccc2cc(C3CC(c4ccccc4)=NN3C(=O)CCC(=O)O)c(Cl)nc2c1 (centres unmarked) [CBK296097] | 97.0095
c1cnc(NCc2cc3n(n2)CCN(CC2CCCC2)C3)nc1 [CBK307007] | 105.483
Cc1nc2c(OCCOc3ccccc3)cccn2c1N(C)CC1CC1 [CBK147272] | 108.548
O=C(NCc1ccco1)c1ccc2c(c1)OCO2 [CBK262133] | 112.919
O=C(O)CNC1=NC2(CCCCC2)Cc2ccccc21 [CBK287001] | 127.956
OCCNc1nc(Nc2ccc(O)cc2)nc2ccccc12 [CBK266606C] | 137.804
COc1ccc(CNC(=O)c2cc(S(=O)(=O)N3CCCC3)c[nH]2)cc1 [CBK304601] | 146.984
CCOC(=O)c1cnn2c(O)cc(CN3CCc4sccc4C3)nc12 [CBK305680] | 104.028
Cc1ccc(N2C(=O)C(CC(=O)Nc3cccc(F)c3)N(CCc3ccncc3)C2=O)cc1 (centres unmarked) [CBK268891] | 140.791
COc1cccc(CC(=O)NCCNc2cccc(F)c2C#N)c1 [CBK305684] | 120.751
Nc1ncccc1C(=O)OCc1ccc(-c2ccccc2)cc1 [CBK295353] | 132.649
O=C(Nc1cnc(-c2ccc(F)c(Cl)c2)c(-c2cccnc2)n1)c1cnccn1 [CBK036819] | 133.663
CC(C)(C)NCCN1CCn2c1nc1ccccc12 [CBK019113] | 108.455
Cc1ccccc1CNC(=O)c1ccc(C)c([N+](=O)[O-])c1 [CBK264010] | 108.955
Cc1cccc(-n2ncc3c2ncn2c(COc4ccccc4C)nnc32)c1 [CBK265567] | 122.131
CC(=O)Nc1cccc(-c2ccc(C(=O)NCc3ccc(F)cc3)c(N3CCN(C(=O)c4ccco4)CC3)n2)c1 [CBK106012] | 107.066
CCc1nn2c(=O)cc(CN3CCN(C(=O)c4cccs4)CC3)nc2s1 [CBK306474] | 131.133
Cc1cccnc1C(NC(=O)C1CCN(C(=O)N2CCCC2)CC1)c1cccs1 (centres unmarked) [CBK060124] | 157.346

As entered above:
% of control remaining [%] with `CCOc1ccc2cc(C3CC(c4ccccc4)=NN3C(=O)CCC(=O)O)c(Cl)nc2c1` (centres unmarked) [CBK296097] reads 97.0095
% of control remaining [%] with `OCCNc1nc(Nc2ccc(O)cc2)nc2ccccc12` [CBK266606C] reads 137.804
% of control remaining [%] with `COc1cccc(CC(=O)NCCNc2cccc(F)c2C#N)c1` [CBK305684] reads 120.751
% of control remaining [%] with `CCOC(=O)c1cnn2c(O)cc(CN3CCc4sccc4C3)nc12` [CBK305680] reads 104.028
% of control remaining [%] with `CCOc1ccc(C2=NN(C(=O)CCC(=O)O)C(c3ccc4nccnc4c3)C2)cc1` (centres unmarked) [CBK296703] reads 137.855

Continuation:

SMILES | % of control remaining [%]
O=S(=O)(NC1CCCC1)c1cccc(-c2nnc(-c3ccccc3)o2)c1 [CBK265716] | 98.8634
CCc1ccc(NC(=O)N2CCCCC2CCn2ccnc2)cc1 (centres unmarked) [CBK307453] | 128.874
S=C(Nc1ccccc1Cl)Nc1ccccc1-n1cccc1 [CBK018806] | 117.06
COCC(=O)N[C@H]1C[C@H]2C(=O)Nc3ccccc3C(=O)N2C1 [CBK289353] | 108.507
CN(C(=O)C1CCN(C(=S)NCc2ccccc2)CC1)C(c1ccccc1)c1ccccn1 (centres unmarked) [CBK060476] | 115.418
N#Cc1ccc(CNC(=O)N2CCCC(CO)C2)cc1 (centres unmarked) [CBK156043] | 119.871
CN1CCC(N2C[C@H](O)C[C@H]2c2nc(-c3ccc4c(c3)OCO4)no2)CC1 [CBK288931] | 131.384
O=C(O)CCCn1cc(NC(=O)c2ccccc2Br)cn1 [CBK270100] | 141.766
O=c1[nH]c2n[nH]c(=O)n2c2c(-c3ccccc3)c[nH]c12 [CBK288054] | 138.201
CCCC(C(=O)O)N1C(=O)C(=Cc2ccc(-c3ccc(C(=O)OCC)cc3)o2)SC1=S (centres unmarked) [CBK296983] | 172.605
Cc1ccc(OCC(=O)Nc2ccccc2CO)cc1 [CBK263600] | 100
CN(C)CCCOc1ccc2c(c1)Sc1ccccc1CC2=O [CBK058002] | 117.747
COc1ccccc1NCC(=O)n1nc(C)cc1C [CBK263879] | 102.76
COc1ccc(S(=O)(=O)Nc2nc(C)c(C(=O)Nc3ccc(F)cc3)s2)cc1OC [CBK050538] | 121.809
CC(C)Cn1c(SCC(=O)N2CCNC2=O)nnc1-c1ccco1 [CBK295175] | 127.281
CCNC(=O)N1CCC[C@@H](O)[C@H](NC(=O)c2ccc(OC)cc2)C1 [CBK289066] | 105.49
CC(C)c1c(N)nc(SCc2ccccc2)nc1Cl [CBK016721] | 104.758
CC(C)N1CCC(N(C)Cc2c[nH]nc2C(C)(C)C)CC1 [CBK283002] | 153.327
Nc1ccc(/C=C/c2cccc(C(=O)O)n2)cc1 [CBK267711] | 150.944
Cn1c(=O)c2c(nc(CN3CCOCC3)n2CCc2ccccc2)n(C)c1=O [CBK269264] | 137.435
O=S(=O)(c1ccc(C(F)(F)F)cc1Cl)N1CCN(Cc2cccc3cccnc23)CC1 [CBK063075] | 98.5255
CC(=O)Nc1cccc(NCc2csc(C3CCCC3)n2)c1 [CBK304874] | 103.639
Cc1cccnc1CN1CCN(C(=O)NCCSc2nncn2C)CC1 [CBK306949] | 138.697
CC(C)(C)NC(=O)CCn1c(-c2cccnc2)cc2cccnc21 [CBK282691] | 94.5567
Cc1ccc(-c2c[nH]c([C@@H]3COCCN3Cc3c[nH]c4ccccc34)n2)cc1 [CBK289308] | 101.173
O=C(c1ccc2c(c1)CCO2)N1CCC(S(=O)(=O)c2ccc(-c3ccccc3)cc2)CC1 [CBK131957] | 76.194
